# Source: PubChem BioAssay AID504467 (National Center for Advancing Translational Sciences (NCATS), 2011)
# Hit rate of the full screen: of about 330,000 compounds, about 7,700 (2.3%) were called active. The shares of active, inactive and inconclusive entries below differ from those in the screen. The call rests on the fitted dose curve; in most records, active means well fitted inhibition curve with a large enough effect; inconclusive means small, poorly fitted or top-dose-only effect, or effect the other way; inactive means flat fitted curve, though single readings scatter. Potencies beside an inconclusive call are fits to weak or partial responses and may not hold up.
# Experiment: qHTS screen for small molecules that inhibit ELG1-dependent DNA repair in human embryonic kidney (HEK293T) cells expressing luciferase-tagged ELG1; further: nearly all actives have a fitted effect of over 55% in size
# Conditions: HEK293T ELG1-luciferase reporter, luminescence, 16 h, DNA damage induced by 5-fluorouridine; activity change, negative = inhibition: at 46.1 µM (top of the series)
# Summary of the method: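 Cells (2,000 per well) received 5-fluorouridine plus test compound or DMSO and were incubated 16 hr at 37 °C, 5% CO2. Luciferase activity was read by luminescence 30 min after ONE-Glo addition; signal suppression marked inhibition of damage-induced ELG1 function.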
# On the % scale 0 is the no-effect control and ±100 the full control effect; potency means the concentration at half of the fitted maximal effect.
SMILES,Potency,"activity change, negative = inhibition"
Cc1ccc(C(=O)c2c(NC(=O)CSc3nnc(N)s3)sc3c2CCCC3)cc1,"inconclusive: 20.6 µM [inhibitor, single point]",–
Brc1ccc(-c2csc(/N=C/N3CCCC3)n2)cc1,"inconclusive: 25.9 µM [activator, single point]",–
O=C(CSc1nnc(-c2ccncc2)o1)Nc1cccc(Cl)c1,"inconclusive: 23.1 µM [activator, partial curve]",–
COc1ccc(NC(=O)c2cccc3c2C(=O)c2ccc(-c4cnc(OC)nc4)cc2S3(=O)=O)cc1,–,inactive: 5.09%
CCOc1ccccc1N1CCN(C(=O)NCc2ccc(Cl)cc2)CC1,"inconclusive: 18.3 µM [inhibitor, single point]",–
O=C(COC(=O)c1ccccc1[N+](=O)[O-])Nc1cc(S(=O)(=O)N2CCOCC2)ccc1N1CCCC1,"inconclusive: 0.0259 µM [inhibitor, full curve]",–
O=C(Nc1ccc2oc(-c3ccccc3F)nc2c1)c1ccc2c(c1)OCCO2,"inconclusive: 29.1 µM [inhibitor, single point]",–
Cc1cc(N/N=C/c2ccccc2Cl)nc(NCc2ccccc2)n1,"inconclusive: 29.1 µM [inhibitor, single point]",–
CCOC(=O)c1sc2nc3c(cc2c1N)C(=O)CC(C)(C)C3,"inconclusive: 18.4 µM [activator, partial curve, poor fit]",–
CC(=O)N1c2ccc(S(=O)(=O)N3CCC(C(=O)Nc4ccc(C)cn4)CC3)cc2CC1C (stereo unspecified),"inconclusive: 23.1 µM [inhibitor, partial curve, poor fit]",–
COc1cc(/C=C2\SC(=O)NC2=O)ccc1Oc1ccc([N+](=O)[O-])cn1,active: 20.6 µM,–
CSc1ccc(NC(=O)NCc2ccccc2)cc1,"inconclusive: 16.4 µM [activator, partial curve]",–
Cc1cccc(-n2ncc3c(NCc4ccccc4)ncnc32)c1,"inconclusive: 25.9 µM [activator, single point]",–
O=C(Nc1ccc(-c2nnn(CC(=O)N3CCN(C(=O)c4ccco4)CC3)n2)cc1)c1ccc(F)cc1,"inconclusive: 20.6 µM [inhibitor, partial curve]",–
O=C(CCC1CCCC1)NC1CCCCC1,"inconclusive: 23.1 µM [activator, partial curve, poor fit]",–
Cn1cccc1C(=O)NCC(c1ccco1)N1CCCCC1 (stereo unspecified),"inconclusive: 20.6 µM [activator, single point]",–
C=CCN(c1ccccc1)S(=O)(=O)c1cccc(C(=O)Nc2cccc(C)n2)c1,–,inactive: -25.3%
CCCOc1ccc(C2c3c(oc4cc(C)c(C)cc4c3=O)C(=O)N2CCCN2CCOCC2)cc1 (stereo unspecified),"inconclusive: 18.4 µM [inhibitor, single point]",–
COCCOC(=O)c1sc2nc[nH]c(=O)c2c1C,"inconclusive: 23.1 µM [activator, partial curve, poor fit]",–
Cn1c(=O)c2c(ncn2CC(=O)N2CCN(c3ccc([N+](=O)[O-])cc3)CC2)n(C)c1=O,"inconclusive: 16.4 µM [inhibitor, partial curve]",–
Cc1ccc2c(c1)[C@H]1[C@H](CO2)[C@H](c2ccccc2)[C@]2(C)C(=O)Nc3cc(Cl)ccc3C(=O)N12,–,inactive: -16.2%

# Some of these compounds in order of formula weight, falling.
SMILES,Potency,"activity change, negative = inhibition"
COc1ccc(NC(=O)c2cccc3c2C(=O)c2ccc(-c4cnc(OC)nc4)cc2S3(=O)=O)cc1,–,inactive: 5.09%
Cc1ccc(C(=O)c2c(NC(=O)CSc3nnc(N)s3)sc3c2CCCC3)cc1,"inconclusive: 20.6 µM [inhibitor, single point]",–
Brc1ccc(-c2csc(/N=C/N3CCCC3)n2)cc1,"inconclusive: 25.9 µM [activator, single point]",–

# Continuation.

SMILES,Potency,"activity change, negative = inhibition"
Cc1ccc(N2CCN(c3ccc([N+](=O)[O-])cn3)CC2)c(C)c1,–,inactive: -15.6%
O=C(CCCN1C(=O)c2ccccc2C1=O)Nc1nncs1,–,inactive: 13.8%
O=[N+]([O-])c1ccccc1-c1ccc(C(=S)N2CCN(c3ccccc3)CC2)o1,–,inactive: 0%
CCOC(=O)Cn1cncc1-c1ccc([N+](=O)[O-])cc1,"inconclusive: 16.4 µM [activator, partial curve]",–
COc1ccccc1N1CCN(C(=O)c2cc3cc(C)ccc3[nH]2)CC1,"inconclusive: 35.5 µM [inhibitor, single point]",–
c1nc(N2CCC3(CC2)OCCO3)c2[nH]cnc2n1,–,inactive: 7.7%
CCOc1ccc(Nc2cc(C)nc(-n3nc(C)cc3C)n2)cc1,"inconclusive: 1.3 µM [inhibitor, partial curve, poor fit]",–
O=C(CCN1C(=O)/C(=C/c2ccccc2)SC1=S)NCCc1ccc(O)cc1,–,inactive: -10.6%
COc1ccc(-c2csc(N(CC3CCCO3)C(=O)c3cccs3)n2)cc1 (stereo unspecified),"inconclusive: 32.6 µM [inhibitor, single point]",–
C=CCC[C@H](Cc1ccc(F)cc1)C(=O)OC[C@H](Cc1c[nH]c2ccccc12)NC(=O)[C@@H](CC=C)CC(=O)N[C@@H](CO)Cc1ccccc1,"inconclusive: 9.2 µM [inhibitor, partial curve]",–
Cc1ccc(C)c(N2CCN(C(=O)c3ccc4nc(N5CCOCC5)sc4c3)CC2)c1,"inconclusive: 20.6 µM [inhibitor, single point]",–
COc1ccc(NC(=O)C2CC(=O)N(C)C(=Nc3ccc4c(c3)OCO4)S2)cc1 (stereo unspecified),"inconclusive: 18.4 µM [inhibitor, single point]",–
CCOc1ccccc1N1CCN(C(=O)c2cc(S(=O)(=O)N3CCCCC3)ccc2C)CC1,"inconclusive: 20.6 µM [inhibitor, single point]",–
COc1ccc(S(=O)(=O)N(C(C)=O)c2ccc(OC(C)=O)c3ccccc23)cc1[N+](=O)[O-],active: 14.6 µM,–
CS(=O)(=O)Cc1ccc(C(=O)Nc2cccc(-c3nc4ccccc4[nH]3)c2)cc1,"inconclusive: 29.1 µM [inhibitor, single point]",–
COCCn1c(=N)c(C(=O)NCCc2ccc(OC)cc2)cc2c(=O)n3cccc(C)c3nc21,"inconclusive: 2.91 µM [inhibitor, full curve]",–
Cc1ccc(Nc2nnc(SCc3nc4ccccc4c(=O)[nH]3)s2)cc1,–,inactive: -14.7%
COc1ccc(CCNC(=O)CCn2c(=O)c3cccn3c3cccnc32)cc1OC,–,inactive: -16.8%
Cc1ccc(NC(=S)Nc2ccc(C(C)C)cc2)cc1S(=O)(=O)N1CCCCCC1,active: 11.6 µM,–
Cc1cc2cc3c(cc2nc1SCc1ccc(C(=O)O)cc1)OCCO3,"inconclusive: 14.6 µM [activator, partial curve, poor fit]",–
